This passage reports binding results from PMC10580588.

The chains behind the UniProt entries cited, without tags or fusion partners.
UniProt Q7Z333: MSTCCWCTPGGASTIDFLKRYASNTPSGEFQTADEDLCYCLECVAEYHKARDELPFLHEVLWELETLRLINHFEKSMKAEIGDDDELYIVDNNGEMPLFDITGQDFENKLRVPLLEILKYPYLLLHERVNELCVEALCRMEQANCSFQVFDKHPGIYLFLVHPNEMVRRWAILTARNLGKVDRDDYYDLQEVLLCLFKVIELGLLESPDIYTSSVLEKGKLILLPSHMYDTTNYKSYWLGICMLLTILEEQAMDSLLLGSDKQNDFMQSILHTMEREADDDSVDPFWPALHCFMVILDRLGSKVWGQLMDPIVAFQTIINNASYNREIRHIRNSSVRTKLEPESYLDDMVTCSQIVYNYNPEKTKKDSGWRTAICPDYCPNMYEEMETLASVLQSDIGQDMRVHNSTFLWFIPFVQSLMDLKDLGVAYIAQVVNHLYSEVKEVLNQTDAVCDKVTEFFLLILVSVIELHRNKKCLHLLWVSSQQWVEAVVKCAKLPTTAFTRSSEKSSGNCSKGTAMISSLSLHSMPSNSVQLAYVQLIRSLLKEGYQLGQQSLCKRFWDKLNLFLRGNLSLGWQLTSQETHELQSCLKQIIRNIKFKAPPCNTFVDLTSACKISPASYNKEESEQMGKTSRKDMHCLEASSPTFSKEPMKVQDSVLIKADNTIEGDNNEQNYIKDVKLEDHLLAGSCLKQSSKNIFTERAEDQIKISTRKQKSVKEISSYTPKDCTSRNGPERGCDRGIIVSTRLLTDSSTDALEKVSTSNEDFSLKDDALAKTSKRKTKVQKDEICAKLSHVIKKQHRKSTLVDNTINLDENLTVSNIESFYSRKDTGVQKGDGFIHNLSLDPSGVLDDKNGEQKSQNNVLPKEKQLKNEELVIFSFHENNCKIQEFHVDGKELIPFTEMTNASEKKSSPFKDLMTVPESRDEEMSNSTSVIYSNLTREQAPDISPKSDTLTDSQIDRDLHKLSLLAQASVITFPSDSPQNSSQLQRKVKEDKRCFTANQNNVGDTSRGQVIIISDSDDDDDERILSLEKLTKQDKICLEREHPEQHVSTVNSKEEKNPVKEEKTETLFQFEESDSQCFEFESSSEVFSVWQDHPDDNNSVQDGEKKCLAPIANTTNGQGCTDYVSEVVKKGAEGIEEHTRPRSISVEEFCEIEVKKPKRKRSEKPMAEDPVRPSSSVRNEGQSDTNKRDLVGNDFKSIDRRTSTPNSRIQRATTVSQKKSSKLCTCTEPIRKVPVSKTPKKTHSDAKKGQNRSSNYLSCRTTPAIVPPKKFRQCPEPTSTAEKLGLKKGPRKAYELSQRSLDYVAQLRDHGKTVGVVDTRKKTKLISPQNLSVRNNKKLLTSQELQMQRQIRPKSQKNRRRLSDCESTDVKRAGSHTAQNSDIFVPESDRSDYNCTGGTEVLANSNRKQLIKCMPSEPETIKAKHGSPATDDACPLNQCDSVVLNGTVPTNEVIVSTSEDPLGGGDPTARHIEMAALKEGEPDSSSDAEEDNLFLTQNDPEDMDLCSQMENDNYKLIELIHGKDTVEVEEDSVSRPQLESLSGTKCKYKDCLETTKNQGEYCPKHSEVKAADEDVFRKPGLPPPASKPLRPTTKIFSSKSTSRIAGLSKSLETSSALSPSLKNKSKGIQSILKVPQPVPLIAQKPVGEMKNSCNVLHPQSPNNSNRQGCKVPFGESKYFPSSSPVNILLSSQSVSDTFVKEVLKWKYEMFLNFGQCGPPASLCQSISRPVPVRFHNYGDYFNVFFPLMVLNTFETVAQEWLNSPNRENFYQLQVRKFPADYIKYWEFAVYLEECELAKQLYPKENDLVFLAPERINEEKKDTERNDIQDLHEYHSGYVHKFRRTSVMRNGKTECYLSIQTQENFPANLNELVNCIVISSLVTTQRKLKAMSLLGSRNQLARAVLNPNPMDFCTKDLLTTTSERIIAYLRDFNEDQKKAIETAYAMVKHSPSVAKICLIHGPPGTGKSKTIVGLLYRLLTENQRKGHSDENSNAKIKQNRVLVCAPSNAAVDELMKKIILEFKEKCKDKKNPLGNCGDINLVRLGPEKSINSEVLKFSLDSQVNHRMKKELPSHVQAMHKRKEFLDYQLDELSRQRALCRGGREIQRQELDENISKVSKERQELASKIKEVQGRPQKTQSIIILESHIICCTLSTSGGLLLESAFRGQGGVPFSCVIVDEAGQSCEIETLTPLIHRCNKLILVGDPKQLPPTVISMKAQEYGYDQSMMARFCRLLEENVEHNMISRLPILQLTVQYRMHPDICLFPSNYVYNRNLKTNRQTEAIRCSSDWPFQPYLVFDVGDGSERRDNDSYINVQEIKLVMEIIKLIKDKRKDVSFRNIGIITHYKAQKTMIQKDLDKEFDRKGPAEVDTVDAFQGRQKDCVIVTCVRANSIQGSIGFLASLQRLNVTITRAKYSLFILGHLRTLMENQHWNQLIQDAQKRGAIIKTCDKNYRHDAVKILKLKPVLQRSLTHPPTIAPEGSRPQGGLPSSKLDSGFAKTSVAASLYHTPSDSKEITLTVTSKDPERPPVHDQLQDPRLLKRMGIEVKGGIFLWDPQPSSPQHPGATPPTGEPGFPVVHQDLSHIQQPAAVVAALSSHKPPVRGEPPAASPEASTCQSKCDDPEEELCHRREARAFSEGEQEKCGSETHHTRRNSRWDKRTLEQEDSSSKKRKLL
UniProt Q06265: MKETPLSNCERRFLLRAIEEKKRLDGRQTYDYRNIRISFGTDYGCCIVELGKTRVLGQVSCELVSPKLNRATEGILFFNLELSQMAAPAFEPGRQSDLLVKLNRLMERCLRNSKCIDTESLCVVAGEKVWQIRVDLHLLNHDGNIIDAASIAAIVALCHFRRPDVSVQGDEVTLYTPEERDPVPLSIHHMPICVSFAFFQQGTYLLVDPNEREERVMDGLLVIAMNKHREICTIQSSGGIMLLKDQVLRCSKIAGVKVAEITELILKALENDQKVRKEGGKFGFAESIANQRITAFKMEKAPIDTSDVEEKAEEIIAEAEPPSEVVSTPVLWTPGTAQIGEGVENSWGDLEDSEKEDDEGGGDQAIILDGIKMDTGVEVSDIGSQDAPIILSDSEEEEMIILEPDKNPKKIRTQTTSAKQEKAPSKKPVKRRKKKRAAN

These are yes or no findings as the source states them, for the method shown. Binding seen in cells or lysates may run through a third protein. Some results given as binding are weak or reduced against the parent protein; the word gives no strength.

The assay has as its target FLAG-tagged full-length senataxin (SETX) (human) (UniProt Q7Z333). Briefly: co-IP; SETX immunoprecipitated, the IP'd material treated with or without RNase A; bands measured by densitometry; IgG only IP as negative control.

Turning to Exosc9 (from UniProt Q06265 1-439), the binding result is listed as “binds”.
